Assay results reported in paper PMC9886921.
Results are given in words; binding and its absence hold for the method and conditions named. Binding seen in cells or lysates may run through a third protein. Some entries that bind do so weakly or less than the wild type.

Sequences of proteins named here, by UniProt entry; tags and fusion partners are left off. A change or cut given only in a name is not applied to a line headed by its entry.
UniProt P49407: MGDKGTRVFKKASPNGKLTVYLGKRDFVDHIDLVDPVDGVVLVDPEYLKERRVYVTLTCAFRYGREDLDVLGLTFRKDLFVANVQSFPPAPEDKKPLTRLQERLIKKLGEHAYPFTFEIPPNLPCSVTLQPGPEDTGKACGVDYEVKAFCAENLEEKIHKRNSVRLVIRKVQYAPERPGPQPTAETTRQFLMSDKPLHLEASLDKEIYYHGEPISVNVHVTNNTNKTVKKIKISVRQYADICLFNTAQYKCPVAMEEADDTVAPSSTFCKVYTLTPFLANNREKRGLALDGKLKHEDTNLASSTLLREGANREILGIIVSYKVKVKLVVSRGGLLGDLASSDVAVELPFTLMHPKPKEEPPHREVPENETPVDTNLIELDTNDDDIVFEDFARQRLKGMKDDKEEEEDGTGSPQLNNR
UniProt P29066: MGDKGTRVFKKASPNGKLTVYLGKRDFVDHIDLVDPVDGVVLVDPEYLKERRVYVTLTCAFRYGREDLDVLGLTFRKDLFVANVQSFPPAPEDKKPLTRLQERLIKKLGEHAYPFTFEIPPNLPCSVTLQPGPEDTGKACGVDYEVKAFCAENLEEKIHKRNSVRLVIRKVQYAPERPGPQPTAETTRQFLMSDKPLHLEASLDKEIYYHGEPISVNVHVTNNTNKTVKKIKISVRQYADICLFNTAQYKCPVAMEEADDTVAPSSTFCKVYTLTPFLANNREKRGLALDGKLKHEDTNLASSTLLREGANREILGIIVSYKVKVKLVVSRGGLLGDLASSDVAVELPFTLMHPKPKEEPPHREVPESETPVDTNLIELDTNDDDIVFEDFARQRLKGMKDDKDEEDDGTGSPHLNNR
UniProt P05556: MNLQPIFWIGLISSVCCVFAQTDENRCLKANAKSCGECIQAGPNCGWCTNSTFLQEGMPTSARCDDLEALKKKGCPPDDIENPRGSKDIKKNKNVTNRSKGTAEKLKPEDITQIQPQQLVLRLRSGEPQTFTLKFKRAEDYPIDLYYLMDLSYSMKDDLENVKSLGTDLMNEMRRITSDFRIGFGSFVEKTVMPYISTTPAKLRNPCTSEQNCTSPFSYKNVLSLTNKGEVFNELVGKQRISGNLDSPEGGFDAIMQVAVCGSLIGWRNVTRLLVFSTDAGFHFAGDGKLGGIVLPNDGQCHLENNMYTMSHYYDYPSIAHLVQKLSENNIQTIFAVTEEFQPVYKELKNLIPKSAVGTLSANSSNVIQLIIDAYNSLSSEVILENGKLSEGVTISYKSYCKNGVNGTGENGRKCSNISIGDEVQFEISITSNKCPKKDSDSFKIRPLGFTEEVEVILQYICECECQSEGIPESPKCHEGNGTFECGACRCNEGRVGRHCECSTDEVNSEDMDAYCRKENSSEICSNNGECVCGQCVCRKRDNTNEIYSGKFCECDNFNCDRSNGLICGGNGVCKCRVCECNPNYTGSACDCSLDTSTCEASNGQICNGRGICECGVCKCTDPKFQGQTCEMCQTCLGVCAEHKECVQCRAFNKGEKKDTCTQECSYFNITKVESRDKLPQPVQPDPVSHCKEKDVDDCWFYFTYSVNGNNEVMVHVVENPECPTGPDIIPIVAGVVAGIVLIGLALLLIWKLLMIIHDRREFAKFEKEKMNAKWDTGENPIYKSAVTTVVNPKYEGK
UniProt Q9Y490: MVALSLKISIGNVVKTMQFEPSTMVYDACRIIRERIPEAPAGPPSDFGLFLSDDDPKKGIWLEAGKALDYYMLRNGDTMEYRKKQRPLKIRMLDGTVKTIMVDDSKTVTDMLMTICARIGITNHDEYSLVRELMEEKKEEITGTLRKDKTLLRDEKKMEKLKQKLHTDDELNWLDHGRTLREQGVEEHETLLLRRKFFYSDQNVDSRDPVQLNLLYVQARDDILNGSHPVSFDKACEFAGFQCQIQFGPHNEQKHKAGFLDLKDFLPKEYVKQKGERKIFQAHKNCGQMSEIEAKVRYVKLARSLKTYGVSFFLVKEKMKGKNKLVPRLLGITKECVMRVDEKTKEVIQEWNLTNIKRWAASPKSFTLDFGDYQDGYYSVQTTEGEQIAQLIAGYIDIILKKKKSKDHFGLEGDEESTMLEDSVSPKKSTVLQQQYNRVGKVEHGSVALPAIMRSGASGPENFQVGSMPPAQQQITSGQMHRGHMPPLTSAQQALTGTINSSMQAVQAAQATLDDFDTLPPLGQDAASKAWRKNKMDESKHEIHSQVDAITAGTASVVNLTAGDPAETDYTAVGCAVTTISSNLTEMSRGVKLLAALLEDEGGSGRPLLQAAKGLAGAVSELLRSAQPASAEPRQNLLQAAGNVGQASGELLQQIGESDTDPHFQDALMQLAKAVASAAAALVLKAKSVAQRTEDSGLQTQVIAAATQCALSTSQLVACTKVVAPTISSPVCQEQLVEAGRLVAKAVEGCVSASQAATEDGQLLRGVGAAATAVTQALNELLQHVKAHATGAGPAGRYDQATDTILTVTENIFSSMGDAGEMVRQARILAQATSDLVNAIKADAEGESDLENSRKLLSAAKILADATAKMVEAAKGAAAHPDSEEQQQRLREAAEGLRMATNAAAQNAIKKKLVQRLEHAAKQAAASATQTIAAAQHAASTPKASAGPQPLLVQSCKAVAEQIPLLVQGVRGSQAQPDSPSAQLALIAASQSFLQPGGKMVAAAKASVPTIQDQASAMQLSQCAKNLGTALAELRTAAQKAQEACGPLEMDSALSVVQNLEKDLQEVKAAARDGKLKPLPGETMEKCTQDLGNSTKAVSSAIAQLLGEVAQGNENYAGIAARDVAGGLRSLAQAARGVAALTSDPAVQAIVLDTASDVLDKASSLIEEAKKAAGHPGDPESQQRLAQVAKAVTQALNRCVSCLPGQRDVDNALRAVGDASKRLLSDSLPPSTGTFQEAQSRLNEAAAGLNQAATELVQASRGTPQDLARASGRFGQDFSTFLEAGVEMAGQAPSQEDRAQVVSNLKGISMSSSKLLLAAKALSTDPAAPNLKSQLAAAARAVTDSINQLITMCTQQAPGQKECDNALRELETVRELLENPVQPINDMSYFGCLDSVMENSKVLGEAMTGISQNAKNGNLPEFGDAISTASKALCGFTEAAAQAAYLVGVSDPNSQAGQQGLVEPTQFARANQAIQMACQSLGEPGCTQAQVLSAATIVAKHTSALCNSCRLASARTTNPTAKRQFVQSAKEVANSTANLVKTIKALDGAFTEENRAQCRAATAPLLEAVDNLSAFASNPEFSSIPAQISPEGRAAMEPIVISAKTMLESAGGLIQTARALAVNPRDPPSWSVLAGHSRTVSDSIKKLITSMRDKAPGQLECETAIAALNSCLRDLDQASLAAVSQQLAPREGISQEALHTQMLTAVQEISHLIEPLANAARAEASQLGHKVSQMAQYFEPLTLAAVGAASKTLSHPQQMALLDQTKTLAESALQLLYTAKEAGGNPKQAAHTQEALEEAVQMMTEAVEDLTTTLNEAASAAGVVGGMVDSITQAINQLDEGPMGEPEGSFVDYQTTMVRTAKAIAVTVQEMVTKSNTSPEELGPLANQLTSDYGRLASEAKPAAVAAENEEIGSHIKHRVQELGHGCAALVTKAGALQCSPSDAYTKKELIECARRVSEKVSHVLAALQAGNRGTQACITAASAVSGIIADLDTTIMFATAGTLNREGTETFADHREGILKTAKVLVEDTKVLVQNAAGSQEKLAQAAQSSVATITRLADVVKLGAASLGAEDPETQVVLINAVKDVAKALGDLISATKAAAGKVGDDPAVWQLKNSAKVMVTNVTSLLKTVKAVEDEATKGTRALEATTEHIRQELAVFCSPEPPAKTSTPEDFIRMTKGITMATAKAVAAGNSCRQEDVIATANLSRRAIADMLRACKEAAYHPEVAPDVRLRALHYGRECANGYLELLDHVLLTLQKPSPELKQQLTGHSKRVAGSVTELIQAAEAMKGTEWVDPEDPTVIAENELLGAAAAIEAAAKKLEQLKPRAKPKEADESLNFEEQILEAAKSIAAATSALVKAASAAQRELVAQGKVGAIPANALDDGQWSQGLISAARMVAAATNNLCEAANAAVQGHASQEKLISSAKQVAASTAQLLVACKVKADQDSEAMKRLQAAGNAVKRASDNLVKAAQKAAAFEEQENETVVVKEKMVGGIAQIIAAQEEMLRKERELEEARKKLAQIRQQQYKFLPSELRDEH

How the values were obtained:
[1] = molecular target: β-arrestin1 (human (endogenous in SKOV3 and OVCAR3)) (UniProt P49407); experiment: proximity ligation; endogenous proteins in fixed OVCAR3 cells stimulated with ET-1 and/or AMB and/or ATN161; Duolink anti-mouse PLUS and anti-rabbit MINUS probes; negative controls with one primary antibody and irrelevant IgG
[2] = molecular target: GST-β-arr1 fusion protein (UniProt P29066); experiment: pull-down; 300 μg lysate of OVCAR3 cells stimulated or not with ET-1, incubated with GST or GST-β-arr1 and Glutathione-Sepharose beads for 2 h at 4 °C; washed three times with PBS; WB; only the target purified
[3] = molecular target: β-arrestin1 (human (endogenous in SKOV3 and OVCAR3)) (UniProt P49407); experiment: co-IP; lysates of SKOV3 cells stimulated with ET-1 (100 nM, 5 min); precleared whole-cell lysates immunoprecipitated with anti-β-arr1 or irrelevant IgG and protein A or G Sepharose, 4 °C overnight; WB; silencing of talin1 also tested (Supplementary Fig. 4B)
[4] = molecular target: integrin β1 (human (endogenous in SKOV3 and OVCAR3)) (UniProt P05556); experiment: proximity ligation; endogenous proteins in fixed OVCAR3 cells stimulated with ET-1 and/or AMB and/or ATN161; Duolink anti-mouse PLUS and anti-rabbit MINUS probes; negative controls with one primary antibody and irrelevant IgG

Measured: binding

integrin β1 (from UniProt P05556 21-798) (receptor)
binds: [1] | [2] | [3]

talin1 (from UniProt Q9Y490 1-2541)
binds: all assays above
